Experimental data published in the supplement of paper PMC11006884.
This is a selection; strong and weak results do not stand in their true shares.

Compound: COC(=O)C#Cc1ccccc1 [methyl 3-phenylpropiolate]
Test: log2 ratio of iodoacetamide-alkyne labeling of the cysteine site, DMSO over compound (competition); higher = stronger covalent engagement of the cysteine by the compound, active = 1 or more
Details: 500 µM; treatment time 1 h; system: HEK293T cell lysate
Procedure, shortened: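 Reporter intensities give each cysteine's log2 competition ratio as the mean of control channels over the mean of compound channels. The samples were HEK293T lysate (2 mg/mL) given vehicle or electrophile (500 µM, 1 h, ambient temperature), then iodoacetamide alkyne (1 h), followed by click coupling to sCIP-TMT reagents, pooling, trypsin digestion overnight at 37 °C, streptavidin enrichment, acid elution, Orbitrap Eclipse LC-MS/MS with FAIMS and FragPipe quantification. Duplicate channels and three replicates were run, and cysteines quantified in only one replicate were discarded.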

Target | log2 ratio of iodoacetamide-alkyne labeling
UniProt P78527_C3837 | inactive: 0.55
CCT2 C412 (UniProt P78371) | inactive: 0.212
SORD C45 (UniProt Q00796) | inactive: -0.0713
CNBP C111 (UniProt P62633) | inactive: -0.136
KIF23 C165 (UniProt Q02241) | inactive: 0.359
SRPK2 C320 (UniProt P78362) | inactive: 0.202
UniProt P62258_C98 | inactive: 0.0722
UniProt P62263_C54 | inactive: 0.0532
OGDH C566 (UniProt Q02218) | inactive: 0.0248
CLTC C736 (UniProt Q00610) | inactive: 0.399
UniProt P78527_C4061 | inactive: 0.465
UniProt P68363_C315 | inactive: 0.0941
EWSR1 C540 (UniProt Q01844) | inactive: -0.123
NFKB2 C57 (UniProt Q00653) | active: 1.24
FKBP1A C23 (UniProt P62942) | inactive: 0.0261
PITPNA C230 (UniProt Q00169) | inactive: 0.182
FOXK2 C210 (UniProt Q01167) | inactive: -0.0804
RPL7A C199 (UniProt P62424) | inactive: 0.117
RPL7A C174 (UniProt P62424) | inactive: -0.0802
EEF1A1 C411 (UniProt P68104) | inactive: 0.726
RPS27A C144 (UniProt P62979) | inactive: -0.175
UniProt P78527_C630 | inactive: 0.0548

Target | log2 ratio of iodoacetamide-alkyne labeling
UniProt P62917_C115 | inactive: 0.195
CNBP C171 (UniProt P62633) | inactive: -0.0616
CDK5 C290 (UniProt Q00535) | inactive: 0.0413
UniProt P63241_C22 | inactive: -0.0755
EIF4G2 C253 (UniProt P78344) | inactive: 0.674
AMPD2 C123 (UniProt Q01433) | inactive: 0.77
P86790_C65 (UniProt P86791+P86790) | inactive: 0.2
UniProt P78527_C1919 | inactive: 0.0818
FKBP3 C133 (UniProt Q00688) | inactive: 0.158
UniProt P68363_C129 | inactive: 0.276
SKP1 C120 (UniProt P63208) | inactive: 0.0376
PFKP C411 (UniProt Q01813) | inactive: 0.0898
OGDH C283 (UniProt Q02218) | inactive: 0.00135
UniProt P62312_C36 | inactive: 0.139
CLTC C491 (UniProt Q00610) | inactive: 0.213
CAP1 C93 (UniProt Q01518) | inactive: 0.152
UniProt P78527_C931 | inactive: -0.141
EXOSC10 C73 (UniProt Q01780) | inactive: 0.348
UniProt P78527_C478 | inactive: 0.609
UniProt P68363_C25 | inactive: 0.424
PFKP C343 (UniProt Q01813) | inactive: 0.276
PAFAH1B2 C188 (UniProt P68402) | inactive: -0.139

Target | log2 ratio of iodoacetamide-alkyne labeling
UniProt P62873_C317 | inactive: 0.0711
PPIA C161 (UniProt P62937) | inactive: -0.0423
RPL18A C137 (UniProt Q02543) | inactive: 0.487
CLTC C870 (UniProt Q00610) | inactive: 0.621
UniProt P62913_C21 | inactive: -0.0754
UniProt P78527_C3781 | inactive: 0.281
UniProt P78527_C2469 | inactive: 0.51
UniProt P62280_C116 | inactive: 0.608
UniProt P62753_C100 | inactive: 0.346
ACTG1 C17 (UniProt P63261) | inactive: 0.00246
UniProt P78527_C1791 | inactive: 0.103
GTF2B C15 (UniProt Q00403) | inactive: 0.155
HNRNPU C391 (UniProt Q00839) | inactive: -0.26
H3F3A C111 (UniProt P84243) | inactive: -0.0761
CLTC C934 (UniProt Q00610) | inactive: 0.162
MRPS9 C233 (UniProt P82933) | inactive: 0.339
UniProt P62910_C91 | inactive: 0.6
GTF2I C215 (UniProt P78347) | inactive: 0.217
GSTO1 C90 (UniProt P78417) | inactive: -0.84
OGDH C802 (UniProt Q02218) | inactive: -0.0839
MPP1 C454 (UniProt Q00013) | inactive: 0.144
